According to patent WO2012092539A2 (dated 2012):
These are yes or no findings as the source states them, for the method shown. Some entries that bind do so weakly or less than the wild type.

Chains of the proteins cited; added tags and fusions are not shown. Lines headed by an entry give the natural chain unless they say otherwise; changes in a name come on top.
UniProt Q9NR61: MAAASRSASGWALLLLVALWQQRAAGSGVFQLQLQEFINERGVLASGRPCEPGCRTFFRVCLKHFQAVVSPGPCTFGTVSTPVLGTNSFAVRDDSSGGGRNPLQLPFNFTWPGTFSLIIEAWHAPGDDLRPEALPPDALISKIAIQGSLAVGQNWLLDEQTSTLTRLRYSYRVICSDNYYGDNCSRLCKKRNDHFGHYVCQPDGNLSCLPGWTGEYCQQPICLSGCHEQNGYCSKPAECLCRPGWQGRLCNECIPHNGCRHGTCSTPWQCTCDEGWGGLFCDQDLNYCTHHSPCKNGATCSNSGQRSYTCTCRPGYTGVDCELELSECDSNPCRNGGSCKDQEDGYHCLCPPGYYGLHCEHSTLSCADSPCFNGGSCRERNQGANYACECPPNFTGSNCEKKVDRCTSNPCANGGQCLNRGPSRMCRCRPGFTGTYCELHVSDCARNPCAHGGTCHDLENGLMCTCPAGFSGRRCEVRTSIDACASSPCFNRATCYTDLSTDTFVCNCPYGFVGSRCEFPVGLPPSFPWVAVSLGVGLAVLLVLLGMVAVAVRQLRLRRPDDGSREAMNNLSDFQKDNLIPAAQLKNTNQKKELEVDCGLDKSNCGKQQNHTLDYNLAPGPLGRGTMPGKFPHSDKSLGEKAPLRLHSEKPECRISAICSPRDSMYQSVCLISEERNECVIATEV

B1: BA1 (antibody, V domains shown)
VH: QVQLVQSGAEVKKPGASVKISCKASGYSFTAYYIHWVKQAPGQGLEWIGYISSYNGATNYNQKFKGRVTFTTDTSTSTAYMELRSLRSDDTAVYYCARDYDYDVGMDYWGQGTLVTVSS
VL: DIVMTQSPDSLAVSLGERATISCRASESVDNYGISFMKWFQQKPGQPPKLLIYAASNQGSGVPDRFSGSGSGTDFTLTISSLQAEDVAVYYCQQSKEVPWTFGGGTKVEIKR
B2: 12.73 (antibody, human IgG2, V domains shown)
VH: QVQLQQWGAGLLKPSETLSLTCAVSGGSFNDEYWSWLRQTPGKGPEWIGEIHESGKTNYNPSLKPRVTISQDAPNKQFSLRLESVTAADTALYYCARLAYRDRWYGAFDVWGQGTMVTVSS
VL: DIQLTQSPSSLSASVGDRVTITCQASHDITNYINWYQQKPGKAPKLLIYHTSKLQTGVPPRFSGGGSGTDFTLTISGLQPEDIATYYCQQFDNLLLTFGGGTKVDIKG
B3: 12.14 (antibody, human IgG2, V domains shown)
VH: EVQLVESGGGLVQPGGSLRLSCAASGFTFSDYAMSWVRQTPGKGLEWVSTISGSGGDTFYADSVKGRFTISRDNSKNTLYLQVNSLRAEDTAVYYCAKDKNRGAYADAFDWGQGTMVTVSS
VL: QPVLTQPTSLSASPGASASLTCTLRSDINVGTYRIYWYKQKPGSPPQYLLTYKSDTDKQQGSGVPSRFSGSKDASANAGILLISELQSDDEADYHCMVWHKSAPIFGGGTKVTVLG
B4: 12.55 (antibody, human IgG2, V domains shown)
VH: EVQLVETGGGLVQPGGSLRLSCAASGFTFSDYAMSWVRQTPGKGLEWVSTISGSGGDTFYADSVKGRFTISRDNSKNTLYLQVNSLRAEDTAVYYCAKDKNRGAYADAFDIWGQGTMVTVSS
VL: QAVLTQPASLSASPGASASLTCTLRSDINVATYRIYWYKQKPGSPPQYLLTYKSDSDKQQGSGVPSRFSGSKDSSANAGILLISGLQSDDEADYHCMVWHKSAPIFGGGTKVTVLG

Legend:
human DLL4 (human) [1] = molecular target: human DLL4 (human) (UniProt Q9NR61); assay: Biacore A100 sandwich epitope binning, human DLL4 injected over immobilized antibody
human DLL4 (human) [2] = molecular target: human DLL4 (human) (UniProt Q9NR61); assay: Biacore A100 sandwich epitope binning, human DLL4 held by immobilized 12.55
human DLL4 (human) [3] = molecular target: human DLL4 (human) (UniProt Q9NR61); assay: Biacore A100 sandwich epitope binning, human DLL4 held by immobilized 12.73 or 12.08
human DLL4 (human) [4] = molecular target: human DLL4 (human) (UniProt Q9NR61); assay: Biacore A100 sandwich epitope binning, human DLL4 held by immobilized 012 BA1 or 012 BA2

Binder	binding (human DLL4 (human) [1])	binding (human DLL4 (human) [2])	binding (human DLL4 (human) [3])	binding (human DLL4 (human) [4])
B1	binds	binds	binds	–
B2	–	–	–	binds
B3	–	–	–	binds
B4	–	–	–	binds
